The values below come from the supplement of paper PMC12819154, “High-throughput peptide-centric local stability assay extends protein–ligand identification to membrane proteins, tissues and bacteria” (Nature Structural & Molecular Biology, 2025).

Amino acid sequences for entries named in this document (tags omitted). A change or cut given only in a name is not applied to a line headed by its entry.
UniProt Q9DBA8: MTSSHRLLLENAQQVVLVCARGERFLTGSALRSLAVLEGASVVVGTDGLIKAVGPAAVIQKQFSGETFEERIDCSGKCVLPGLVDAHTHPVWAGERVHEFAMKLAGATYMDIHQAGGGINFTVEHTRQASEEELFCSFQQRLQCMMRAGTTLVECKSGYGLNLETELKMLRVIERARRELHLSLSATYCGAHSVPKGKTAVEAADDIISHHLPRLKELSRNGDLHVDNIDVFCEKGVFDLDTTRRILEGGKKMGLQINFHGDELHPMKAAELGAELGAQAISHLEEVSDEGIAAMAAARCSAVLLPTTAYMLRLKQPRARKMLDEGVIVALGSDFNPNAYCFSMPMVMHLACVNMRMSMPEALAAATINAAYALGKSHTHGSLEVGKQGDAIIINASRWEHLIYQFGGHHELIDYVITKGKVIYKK
UniProt Q9D289: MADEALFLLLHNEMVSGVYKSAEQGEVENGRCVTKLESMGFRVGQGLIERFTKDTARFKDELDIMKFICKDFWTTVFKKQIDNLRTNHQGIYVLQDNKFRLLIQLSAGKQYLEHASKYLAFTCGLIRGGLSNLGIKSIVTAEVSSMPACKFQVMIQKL
UniProt Q9D281: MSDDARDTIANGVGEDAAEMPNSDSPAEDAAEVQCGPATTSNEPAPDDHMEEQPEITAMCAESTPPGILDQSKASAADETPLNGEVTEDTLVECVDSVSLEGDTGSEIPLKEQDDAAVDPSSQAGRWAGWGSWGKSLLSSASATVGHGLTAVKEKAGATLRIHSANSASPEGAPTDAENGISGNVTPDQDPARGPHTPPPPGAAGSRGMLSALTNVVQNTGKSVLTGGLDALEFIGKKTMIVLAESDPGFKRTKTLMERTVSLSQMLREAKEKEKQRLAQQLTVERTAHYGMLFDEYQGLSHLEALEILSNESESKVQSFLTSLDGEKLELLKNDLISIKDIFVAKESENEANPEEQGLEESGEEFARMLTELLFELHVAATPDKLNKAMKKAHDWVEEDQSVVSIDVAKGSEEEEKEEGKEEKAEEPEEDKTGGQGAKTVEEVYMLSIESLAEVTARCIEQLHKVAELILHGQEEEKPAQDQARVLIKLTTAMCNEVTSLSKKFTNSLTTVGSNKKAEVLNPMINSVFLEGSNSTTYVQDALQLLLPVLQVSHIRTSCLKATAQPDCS
UniProt Q9D819: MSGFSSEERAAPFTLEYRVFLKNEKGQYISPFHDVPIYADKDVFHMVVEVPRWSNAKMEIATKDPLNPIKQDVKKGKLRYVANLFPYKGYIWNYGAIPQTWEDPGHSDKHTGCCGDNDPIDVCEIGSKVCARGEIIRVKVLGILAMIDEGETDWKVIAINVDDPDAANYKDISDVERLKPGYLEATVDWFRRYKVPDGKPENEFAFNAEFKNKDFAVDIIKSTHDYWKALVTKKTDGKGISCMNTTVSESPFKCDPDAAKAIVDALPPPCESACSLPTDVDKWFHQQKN
UniProt Q9DBC7, whole entry: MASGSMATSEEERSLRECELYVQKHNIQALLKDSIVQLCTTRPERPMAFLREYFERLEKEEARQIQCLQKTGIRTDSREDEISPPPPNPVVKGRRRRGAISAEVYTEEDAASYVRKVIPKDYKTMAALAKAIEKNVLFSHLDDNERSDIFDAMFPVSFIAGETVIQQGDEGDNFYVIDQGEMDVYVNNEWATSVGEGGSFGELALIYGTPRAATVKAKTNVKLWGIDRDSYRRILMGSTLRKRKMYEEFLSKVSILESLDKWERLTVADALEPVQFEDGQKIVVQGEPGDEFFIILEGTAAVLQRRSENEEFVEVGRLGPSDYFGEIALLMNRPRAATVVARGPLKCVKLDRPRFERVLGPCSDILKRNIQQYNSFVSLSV
UniProt Q9DB25: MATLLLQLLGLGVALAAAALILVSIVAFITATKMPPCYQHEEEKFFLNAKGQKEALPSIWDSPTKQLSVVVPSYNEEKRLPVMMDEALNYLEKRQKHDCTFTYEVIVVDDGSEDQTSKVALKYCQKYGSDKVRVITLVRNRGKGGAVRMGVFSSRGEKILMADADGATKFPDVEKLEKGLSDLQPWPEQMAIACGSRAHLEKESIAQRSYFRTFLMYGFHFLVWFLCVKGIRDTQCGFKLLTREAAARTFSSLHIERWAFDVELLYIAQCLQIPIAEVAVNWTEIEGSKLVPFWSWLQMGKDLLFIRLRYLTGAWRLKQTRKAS
UniProt Q9D273: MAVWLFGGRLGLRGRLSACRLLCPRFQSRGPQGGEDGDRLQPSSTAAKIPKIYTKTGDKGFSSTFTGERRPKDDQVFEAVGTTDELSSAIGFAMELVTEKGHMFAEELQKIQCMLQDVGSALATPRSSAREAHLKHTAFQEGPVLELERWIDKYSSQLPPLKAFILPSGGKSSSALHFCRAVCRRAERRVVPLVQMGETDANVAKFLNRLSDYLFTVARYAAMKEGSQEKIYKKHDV
UniProt Q9DBG7: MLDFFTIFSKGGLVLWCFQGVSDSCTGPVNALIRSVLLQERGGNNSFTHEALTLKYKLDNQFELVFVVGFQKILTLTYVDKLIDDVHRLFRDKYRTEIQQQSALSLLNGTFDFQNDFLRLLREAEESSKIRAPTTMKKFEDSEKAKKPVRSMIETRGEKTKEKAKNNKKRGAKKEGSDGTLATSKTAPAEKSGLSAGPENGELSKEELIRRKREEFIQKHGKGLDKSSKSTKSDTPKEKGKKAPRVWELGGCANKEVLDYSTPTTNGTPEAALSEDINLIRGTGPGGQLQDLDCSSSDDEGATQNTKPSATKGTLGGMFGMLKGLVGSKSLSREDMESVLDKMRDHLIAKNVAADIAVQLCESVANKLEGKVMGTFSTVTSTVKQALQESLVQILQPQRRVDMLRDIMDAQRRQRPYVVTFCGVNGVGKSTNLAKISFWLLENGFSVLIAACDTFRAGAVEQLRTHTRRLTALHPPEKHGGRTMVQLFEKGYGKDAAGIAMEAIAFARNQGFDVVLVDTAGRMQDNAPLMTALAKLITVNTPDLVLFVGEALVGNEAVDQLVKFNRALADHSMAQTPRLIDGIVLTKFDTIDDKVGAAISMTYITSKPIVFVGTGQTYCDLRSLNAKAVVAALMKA
UniProt Q9D7J4: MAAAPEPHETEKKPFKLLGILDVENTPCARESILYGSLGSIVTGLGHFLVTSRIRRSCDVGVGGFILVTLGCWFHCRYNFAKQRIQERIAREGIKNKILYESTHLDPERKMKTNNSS
UniProt Q9D0R9: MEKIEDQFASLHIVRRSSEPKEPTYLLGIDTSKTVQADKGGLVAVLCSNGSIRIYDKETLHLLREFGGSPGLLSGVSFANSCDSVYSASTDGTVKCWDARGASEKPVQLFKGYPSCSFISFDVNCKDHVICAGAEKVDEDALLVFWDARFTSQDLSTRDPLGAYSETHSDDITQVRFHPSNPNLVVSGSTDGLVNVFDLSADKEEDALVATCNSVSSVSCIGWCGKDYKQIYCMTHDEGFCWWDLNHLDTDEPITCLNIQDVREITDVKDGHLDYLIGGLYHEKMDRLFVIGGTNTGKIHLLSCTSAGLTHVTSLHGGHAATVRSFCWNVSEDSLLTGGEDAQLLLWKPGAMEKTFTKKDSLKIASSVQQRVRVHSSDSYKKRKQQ
UniProt Q9DBR3, whole entry: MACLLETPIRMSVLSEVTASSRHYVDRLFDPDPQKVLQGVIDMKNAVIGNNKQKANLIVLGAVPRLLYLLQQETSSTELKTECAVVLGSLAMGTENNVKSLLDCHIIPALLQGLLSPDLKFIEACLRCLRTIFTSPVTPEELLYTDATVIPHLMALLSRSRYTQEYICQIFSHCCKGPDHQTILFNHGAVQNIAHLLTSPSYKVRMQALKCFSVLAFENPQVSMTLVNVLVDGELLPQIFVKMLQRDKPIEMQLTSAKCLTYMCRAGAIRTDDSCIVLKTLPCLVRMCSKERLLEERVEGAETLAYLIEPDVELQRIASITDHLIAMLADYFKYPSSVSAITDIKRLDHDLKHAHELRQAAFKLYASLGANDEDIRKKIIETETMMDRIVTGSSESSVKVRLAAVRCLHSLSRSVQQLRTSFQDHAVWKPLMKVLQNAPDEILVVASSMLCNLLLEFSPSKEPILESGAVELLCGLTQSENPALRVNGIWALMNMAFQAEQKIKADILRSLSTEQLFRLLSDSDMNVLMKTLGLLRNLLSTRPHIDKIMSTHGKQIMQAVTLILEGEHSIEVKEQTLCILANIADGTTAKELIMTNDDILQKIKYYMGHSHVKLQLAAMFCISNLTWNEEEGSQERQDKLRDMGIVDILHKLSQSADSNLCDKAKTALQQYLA
UniProt Q9CYX7: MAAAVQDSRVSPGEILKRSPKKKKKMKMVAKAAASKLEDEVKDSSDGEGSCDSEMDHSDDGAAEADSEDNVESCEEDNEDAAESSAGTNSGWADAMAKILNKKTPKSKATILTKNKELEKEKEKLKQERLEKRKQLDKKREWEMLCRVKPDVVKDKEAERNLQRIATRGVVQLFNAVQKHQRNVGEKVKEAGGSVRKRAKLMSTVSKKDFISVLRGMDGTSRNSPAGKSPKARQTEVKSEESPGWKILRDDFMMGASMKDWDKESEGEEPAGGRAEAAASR
UniProt Q9DBR1: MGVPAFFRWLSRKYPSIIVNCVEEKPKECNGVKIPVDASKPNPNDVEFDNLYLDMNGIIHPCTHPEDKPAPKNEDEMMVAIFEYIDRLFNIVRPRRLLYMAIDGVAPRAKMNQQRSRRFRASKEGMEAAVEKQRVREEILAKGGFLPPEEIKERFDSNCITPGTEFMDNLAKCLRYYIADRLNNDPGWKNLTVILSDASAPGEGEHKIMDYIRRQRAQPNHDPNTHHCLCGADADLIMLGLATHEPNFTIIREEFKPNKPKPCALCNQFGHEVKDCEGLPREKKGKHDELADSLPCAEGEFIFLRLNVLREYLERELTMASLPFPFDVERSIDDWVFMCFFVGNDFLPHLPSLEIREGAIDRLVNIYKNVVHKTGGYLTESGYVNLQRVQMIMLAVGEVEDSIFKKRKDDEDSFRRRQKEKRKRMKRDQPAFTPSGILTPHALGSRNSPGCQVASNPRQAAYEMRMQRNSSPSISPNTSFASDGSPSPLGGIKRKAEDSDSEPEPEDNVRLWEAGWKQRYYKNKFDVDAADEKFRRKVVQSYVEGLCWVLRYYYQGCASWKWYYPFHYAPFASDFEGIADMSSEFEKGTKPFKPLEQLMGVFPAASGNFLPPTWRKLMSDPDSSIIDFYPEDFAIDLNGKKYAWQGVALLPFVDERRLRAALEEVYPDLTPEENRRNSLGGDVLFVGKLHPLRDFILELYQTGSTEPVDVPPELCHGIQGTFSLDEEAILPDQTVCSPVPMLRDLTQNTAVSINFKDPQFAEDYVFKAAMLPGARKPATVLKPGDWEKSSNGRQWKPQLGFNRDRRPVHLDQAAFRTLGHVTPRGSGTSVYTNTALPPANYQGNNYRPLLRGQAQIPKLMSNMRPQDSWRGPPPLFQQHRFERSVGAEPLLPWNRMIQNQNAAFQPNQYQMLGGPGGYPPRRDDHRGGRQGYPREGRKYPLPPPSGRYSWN
UniProt Q9CXW3, whole entry: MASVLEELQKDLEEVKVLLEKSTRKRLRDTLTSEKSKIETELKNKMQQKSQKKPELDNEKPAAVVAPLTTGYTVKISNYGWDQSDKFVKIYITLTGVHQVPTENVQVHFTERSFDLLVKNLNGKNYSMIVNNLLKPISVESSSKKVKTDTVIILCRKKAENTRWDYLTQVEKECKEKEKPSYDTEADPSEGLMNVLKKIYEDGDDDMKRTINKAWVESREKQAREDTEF
UniProt Q9D6M3: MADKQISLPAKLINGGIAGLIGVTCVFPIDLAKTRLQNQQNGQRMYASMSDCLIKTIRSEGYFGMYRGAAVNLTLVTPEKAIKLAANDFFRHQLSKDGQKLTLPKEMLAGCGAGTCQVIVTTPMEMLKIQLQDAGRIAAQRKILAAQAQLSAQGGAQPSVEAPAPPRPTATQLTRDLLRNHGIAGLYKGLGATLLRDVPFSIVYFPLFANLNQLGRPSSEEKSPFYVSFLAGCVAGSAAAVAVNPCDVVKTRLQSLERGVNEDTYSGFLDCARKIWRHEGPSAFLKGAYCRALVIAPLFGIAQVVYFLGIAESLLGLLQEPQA
UniProt Q9D198: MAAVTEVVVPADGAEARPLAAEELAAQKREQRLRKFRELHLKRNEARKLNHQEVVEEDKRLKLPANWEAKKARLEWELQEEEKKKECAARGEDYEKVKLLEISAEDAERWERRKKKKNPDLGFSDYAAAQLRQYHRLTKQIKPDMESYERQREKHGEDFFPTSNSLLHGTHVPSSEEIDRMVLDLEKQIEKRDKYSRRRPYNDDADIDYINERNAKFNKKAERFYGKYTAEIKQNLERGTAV
UniProt Q9CY24: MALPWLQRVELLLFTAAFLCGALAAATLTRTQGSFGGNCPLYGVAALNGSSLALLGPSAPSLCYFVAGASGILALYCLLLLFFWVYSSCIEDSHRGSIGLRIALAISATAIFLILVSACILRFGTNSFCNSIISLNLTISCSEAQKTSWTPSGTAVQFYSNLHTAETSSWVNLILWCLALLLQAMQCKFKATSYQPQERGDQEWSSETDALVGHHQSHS
UniProt Q9D855: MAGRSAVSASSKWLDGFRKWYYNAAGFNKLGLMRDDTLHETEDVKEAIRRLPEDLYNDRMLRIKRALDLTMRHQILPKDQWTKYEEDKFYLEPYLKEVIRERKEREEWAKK

The list shows a part of the results. Most entries show no effect beyond the scatter of the controls.

Compound in this test: CN[C@@H]1C[C@H]2O[C@@](C)([C@@H]1OC)n1c3ccccc3c3c4c(c5c6ccccc6n2c5c31)C(=O)NC4 [staurosporine]
Description: log2 fold change of pooled soluble protein (PISA), ligand vs vehicle (log2 ratio); higher = more thermally stabilized. The note with it: ligand concentration: 20 uM; assay format: PISA pool 52.9/55.5/58.6 C.
UniProt Q9DBA8: the “log2 fold change of pooled soluble protein” value (“log2 fold change” for short) was 0.0234.

UniProt Q9D4C5: the “log2 fold change” value was 0.0258.

Regarding UniProt Q9D5V5, the “log2 fold change” value was 0.157.

Turning to UniProt Q9D964, the “log2 fold change” value was -0.032.

For UniProt Q9D289, the “log2 fold change” value was -0.0765.

Turning to UniProt Q9D710, the “log2 fold change” value is -0.223.

As for UniProt Q9D0P0, the “log2 fold change” value is -0.0939.

In the case of UniProt Q9D281, the “log2 fold change” value was -0.145.

For the target UniProt Q9D819, the “log2 fold change” value was -0.0543.

As to UniProt Q9CYA0, the “log2 fold change” value was -0.0171.

Take UniProt Q9D832: the “log2 fold change” value came out at 0.232.

With UniProt Q9D0L8, the “log2 fold change” value is 0.152.

On to UniProt Q9CYA6, for which the “log2 fold change” value came out at 0.213.

Regarding UniProt Q9DBR7, the “log2 fold change” value is -0.0786.

Take UniProt Q9DBN1: the “log2 fold change” value is 0.144.

Regarding UniProt Q9DBC7, the “log2 fold change” value stood at 0.0612.

Take UniProt Q9D727: the “log2 fold change” value stood at 0.0859.

For the target UniProt Q9DB25, the “log2 fold change” value stood at 0.194.

Consider UniProt Q9D273, for which the “log2 fold change” value is -0.0452.

On to UniProt Q9DBG7, for which the “log2 fold change” value was determined as 0.0752.

With UniProt Q9D7J4, the “log2 fold change” value was found to be 0.0804.

For UniProt Q9CZ44, the “log2 fold change” value worked out at 0.128.

Turning to UniProt Q9D1R9, the “log2 fold change” value was -0.11.

Regarding UniProt Q9D0R9, the “log2 fold change” value was -0.0619.

Turning to UniProt Q9DBR3, the “log2 fold change” value is 0.0731.

For UniProt Q9DB16, the “log2 fold change” value was -0.146.

Take UniProt Q9CYX7: the “log2 fold change” value was -0.0468.

UniProt Q9D0M3: the “log2 fold change” value is -0.224.

In the case of UniProt Q9DBR1, the “log2 fold change” value was found to be 0.0154.

With UniProt Q9CXW3, the “log2 fold change” value came to 0.0221.

For UniProt Q9D6M3, the “log2 fold change” value was -0.0776.

In the case of UniProt Q9D198, the “log2 fold change” value was -0.322.

As for UniProt Q9DBJ3, the “log2 fold change” value was -0.0514.

With UniProt Q9D753, the “log2 fold change” value was found to be 0.00444.

As for UniProt Q9CY24, the “log2 fold change” value is 0.0332.

On to UniProt Q9D855, for which the “log2 fold change” value is 0.0489.

As for UniProt Q9DAI2, the “log2 fold change” value came out at 0.0409.
